The record followed here is PMC11254748.

Protein sequences, listed by entry. Tags and fused reporters are not part of them.
UniProt Q92993: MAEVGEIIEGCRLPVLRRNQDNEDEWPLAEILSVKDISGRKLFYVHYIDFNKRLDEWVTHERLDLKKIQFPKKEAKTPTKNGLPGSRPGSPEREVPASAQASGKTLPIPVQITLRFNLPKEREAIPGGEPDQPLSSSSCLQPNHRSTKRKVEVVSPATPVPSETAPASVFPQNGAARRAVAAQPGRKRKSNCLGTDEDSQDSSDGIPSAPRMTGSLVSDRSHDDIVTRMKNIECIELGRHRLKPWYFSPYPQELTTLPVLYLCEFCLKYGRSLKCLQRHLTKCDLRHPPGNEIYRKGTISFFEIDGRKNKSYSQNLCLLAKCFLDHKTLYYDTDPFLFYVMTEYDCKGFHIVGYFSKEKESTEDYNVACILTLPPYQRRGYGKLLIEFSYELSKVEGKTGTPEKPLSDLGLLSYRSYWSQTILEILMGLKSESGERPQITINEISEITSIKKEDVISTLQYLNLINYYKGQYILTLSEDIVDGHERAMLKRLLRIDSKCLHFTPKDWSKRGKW
UniProt O60934: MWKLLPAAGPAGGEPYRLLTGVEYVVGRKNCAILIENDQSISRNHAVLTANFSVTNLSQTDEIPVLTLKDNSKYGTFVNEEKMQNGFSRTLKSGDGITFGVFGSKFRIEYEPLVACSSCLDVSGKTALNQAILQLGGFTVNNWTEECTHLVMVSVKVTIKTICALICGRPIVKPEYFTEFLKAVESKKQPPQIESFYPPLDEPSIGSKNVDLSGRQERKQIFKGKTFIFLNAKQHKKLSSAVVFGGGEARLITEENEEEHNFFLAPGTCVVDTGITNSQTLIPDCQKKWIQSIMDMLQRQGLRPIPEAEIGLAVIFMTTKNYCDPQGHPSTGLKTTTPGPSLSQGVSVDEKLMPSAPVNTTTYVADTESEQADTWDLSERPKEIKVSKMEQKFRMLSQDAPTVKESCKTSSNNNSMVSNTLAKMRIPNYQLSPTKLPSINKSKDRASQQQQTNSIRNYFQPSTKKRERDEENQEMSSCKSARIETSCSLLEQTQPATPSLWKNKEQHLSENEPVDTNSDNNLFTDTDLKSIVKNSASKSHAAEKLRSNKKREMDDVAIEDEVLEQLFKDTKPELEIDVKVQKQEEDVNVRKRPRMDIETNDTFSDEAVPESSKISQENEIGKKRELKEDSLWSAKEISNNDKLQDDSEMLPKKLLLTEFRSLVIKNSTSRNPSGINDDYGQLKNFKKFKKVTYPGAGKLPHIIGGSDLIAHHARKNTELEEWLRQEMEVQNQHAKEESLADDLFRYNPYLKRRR
UniProt O15379: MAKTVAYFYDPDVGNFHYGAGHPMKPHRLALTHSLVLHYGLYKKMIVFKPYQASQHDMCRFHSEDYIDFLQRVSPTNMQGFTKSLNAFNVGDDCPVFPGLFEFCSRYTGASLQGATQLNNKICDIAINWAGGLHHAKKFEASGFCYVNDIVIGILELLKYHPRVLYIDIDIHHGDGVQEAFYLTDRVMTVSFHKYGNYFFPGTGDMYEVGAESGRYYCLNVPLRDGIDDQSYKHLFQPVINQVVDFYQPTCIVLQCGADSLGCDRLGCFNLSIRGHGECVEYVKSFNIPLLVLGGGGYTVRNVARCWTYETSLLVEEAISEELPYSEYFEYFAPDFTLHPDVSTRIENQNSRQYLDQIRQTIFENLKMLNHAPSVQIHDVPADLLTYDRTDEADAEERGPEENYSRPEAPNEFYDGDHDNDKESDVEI

No constants are given. Whether binding was seen depends on the method and setting. For some of these results: Binding seen in cells or lysates may run through a third protein. Some binding calls cover weakened binding; strength is not graded here.

The target in one assay is GST-TIP60 (UniProt Q92993). As to the kind of experiment: pull-down; purified NBS1 incubated with GST-TIP60, GST pull-down, immunoblot with anti-NBS1; both purified. (A western blot detects proteins with antibodies after separation by electrophoresis.)
In assay [1] the target is NBS1 (in the co-IP with HDAC3) (UniProt O60934). As to the kind of experiment: co-IP; co-IP of HDAC3 and NBS1; cells and antibodies not told.
The target of assay [2] is NBS1 (exogenously expressed, exogenous IP) (UniProt O60934). The assay is described as follows: co-IP; exogenous IP assay of expressed TIP60 and NBS1; cells and tags not told.
In assay [3] the target is NBS1 (endogenous, wild type, AGS-P cells) (human (endogenous in AGS)) (UniProt O60934). The assay is described as follows: co-IP; endogenous co-immunoprecipitation in AGS-P cells, whole-cell extracts; also after cisplatin (2.5 μM, 6 h).

On to “Purified NBS1 (not lactylated) (from UniProt O60934 1-754)”, for which the binding entry in the assay with GST-TIP60 is “binds”.
Regarding “HDAC3 (in the co-IP with NBS1) (from UniProt O15379 1-428) (enzyme)”, the binding entry in assay [1] is “binds”.
As to “TIP60 (exogenously expressed, exogenous IP) (from UniProt Q92993 1-513) (enzyme)”, the binding entry in assay [2] is on record as “binds”.
Turning to “TIP60 (endogenous, AGS-P cells) (from UniProt Q92993 1-513) (enzyme)”, the binding entry in assay [3] is “binds”.
